Reference: the supplement of paper PMC12282887
These are raw signals, not scaled to a control.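 For antimicrobials the highest concentration approximated the MIC. Most other compounds topped out at 500 µM, and known inducer-like compounds reached up to 1 mM. Inocula for deletion strains were tenfold smaller, and any well growing below 10% of the overall median was considered non-growing.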

Tested on: Escherichia coli BW25113
Assay: growth (OD600 area under curve, 8 h) (OD600 x h); higher = more growth
Procedure: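 E. coli BW25113 reporter strains (wild type, ΔmarA, ΔsoxS, Δrob, each carrying one of 8 lux reporter plasmids) were grown in 40 µl LB in 384-well plates at 37°C, 800 rpm, with each compound at 4 two-fold concentrations, in biological duplicates. Growth is the baseline-corrected OD600 area under the curve over 8 h (0-8 h WT, 1-9 h deletion strains).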

O=C(N[C@H](CO)[C@H](O)c1ccc([N+](=O)[O-])cc1)C(Cl)Cl [Chloramphenicol]
growth
Conditions	reporter plasmid: EVC	reporter plasmid: acrABp	reporter plasmid: marRABp	reporter plasmid: micFp	reporter plasmid: ompFp	reporter plasmid: robp	reporter plasmid: soxSp	reporter plasmid: tolCp
0.12 µg/ml, genetic background: wild type	2.683	2.71	3.28	3.17	3.0051	3.26	3.074	3.03
0.12 µg/ml, genetic background: ΔmarA	2.73	3.75	3.46	3.27	3.12	3.16	2.5	2.59
0.12 µg/ml, genetic background: Δrob	2.28	2.99	3.05	2.9	2.39	2.66	2.84	2.75
0.12 µg/ml, genetic background: ΔsoxS	2.78	3.03	2.97	2.46	2.92	3.03	2.95	2.77
0.24 µg/ml, genetic background: wild type	2.484	2.61	3.06	2.86	2.65	3.19	2.87	2.86
0.24 µg/ml, genetic background: ΔmarA	2.51	3.63	3.09	2.79	2.69	2.94	2.57	2.53
0.24 µg/ml, genetic background: Δrob	2.18	2.82	2.98	2.71	2.3	2.57	2.71	2.65
0.24 µg/ml, genetic background: ΔsoxS	2.54	2.77	2.89	2.21	3.08	2.92	2.7	2.41
